PubChem BioAssay AID652243 | Drosophila RNAi Screening Center – 2013
In all, the deposit lists about 24,000 reagents; below is a random part of those that have a named target and a result. Of all reagents, 246 (1%) are marked active. 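Plates not normalised; calls are printed but the firefly/Renilla ratio behind them is not deposited; fold cut for lowering reported inconsistently.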 Raw values vary from plate to plate and are shown uncorrected. A plus sign joins genes that one reagent is predicted to hit. Reagent sequences are not shown. The record does not give: the amount of reagent.

Test: 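Fly regulators of androgen-dependent reporter output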 (primary screen)
Cell system: Drosophila S2R+ cells
Reagents: long dsRNA against Drosophila genes
Timing: 72 h (48 h, then 24 h hormone)
Treatment: synthetic androgen R1881 at 10 nM for 24 h
Measurement: 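Firefly light from an androgen-responsive reporter and Renilla control light per well, raw and unnormalised, for each of two replicates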
Direction: firefly reporter light: higher = more light from androgen-responsive reporter; Renilla control light: higher = more constitutive control signal (cell number, transfection)
Hit rule: 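Hit when the log firefly-to-Renilla ratio dropped or increased by a fixed fold versus the mean of GFP or LacZ controls across duplicate plates; lowering cut given as 1.5 and as 3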
Meaning of the calls: active = hit: reporter lowered or raised; inactive = no hit

The first 5 records as a preview:
| Gene | dsRNA | firefly reporter light, replicate 1 | firefly reporter light, replicate 2 | Renilla control light, replicate 1 | Renilla control light, replicate 2 | Outcome |
| --- | --- | --- | --- | --- | --- | --- |
| Vkor | DRSC37855 | 7.19e5 | 8.87e5 | 2.15e6 | 2.10e6 | inactive |
| CG9297 | DRSC16469 | 69866 | 58785 | 2.54e5 | 2.06e5 | inactive |
| CG9297 | DRSC25256 | 7.17e5 | 6.39e5 | 1.12e6 | 1.05e6 | inactive |
| Vm26Aa | DRSC03472 | 21160 | 45232 | 4.98e5 | 6.04e5 | inactive |
| Vm26Aa | DRSC25243 | 3.25e5 | 2.81e5 | 1.08e6 | 5.74e5 | inactive |

The list itself, from the first entry:
| Gene | dsRNA | firefly reporter light, replicate 1 | firefly reporter light, replicate 2 | Renilla control light, replicate 1 | Renilla control light, replicate 2 | Outcome |
| --- | --- | --- | --- | --- | --- | --- |
| Vkor | DRSC37855 | 7.19e5 | 8.87e5 | 2.15e6 | 2.10e6 | inactive |
| CG9297 | DRSC16469 | 69866 | 58785 | 2.54e5 | 2.06e5 | inactive |
| CG9297 | DRSC25256 | 7.17e5 | 6.39e5 | 1.12e6 | 1.05e6 | inactive |
| Vm26Aa | DRSC03472 | 21160 | 45232 | 4.98e5 | 6.04e5 | inactive |
| Vm26Aa | DRSC25243 | 3.25e5 | 2.81e5 | 1.08e6 | 5.74e5 | inactive |
| cana + CG33695 | DRSC23517 | 8.62e5 | 8.93e5 | 1.56e6 | 1.59e6 | inactive |
| CG13766 | DRSC02271 | 1.77e5 | 1.39e5 | 1.17e6 | 1.07e6 | inactive |
| CG13766 | DRSC29049 | 7.72e5 | 5.17e5 | 1.70e6 | 1.37e6 | inactive |
| CG34006 (retired record) | DRSC37920 | 7.78e5 | 6.89e5 | 2.06e6 | 1.55e6 | inactive |
| Pa1 | DRSC19422 | 4.29e5 | 4.72e5 | 4.46e6 | 4.45e6 | inactive |
| Pa1 | DRSC29046 | 5.90e5 | 5.22e5 | 1.71e6 | 1.46e6 | inactive |
| CG3663 | DRSC04402 | 6.04e5 | 7.26e5 | 1.11e6 | 1.15e6 | inactive |
| CG3663 | DRSC27007 | 5.56e5 | 5.69e5 | 8.83e5 | 5.79e5 | inactive |
| CG17564 | DRSC02626 | 1.54e5 | 1.64e5 | 2.15e6 | 1.94e6 | inactive |
| CG17564 | DRSC26542 | 2.83e5 | 2.39e5 | 5.09e5 | 5.16e5 | inactive |
| CG31213 | DRSC14312 | 2.78e5 | 3.20e5 | 2.74e6 | 3.18e6 | inactive |
| CG31213 | DRSC15647 | 2.86e5 | 2.74e5 | 3.60e6 | 4.02e6 | inactive |
| CG10950 | DRSC06020 | 60462 | 79119 | 1.50e6 | 1.50e6 | inactive |
| beat-Vc | DRSC12927 | 2.12e5 | 1.49e5 | 3.59e5 | 4.68e5 | inactive |
| beat-Vc | DRSC14849 | 66772 | 82970 | 9.47e5 | 1.62e6 | inactive |
| CG17147 | DRSC10249 | 1.78e5 | 1.74e5 | 2.75e6 | 2.33e6 | inactive |
| CG17147 | DRSC29813 | 2.24e5 | 1.72e5 | 1.14e6 | 1.24e6 | inactive |
| Mtr3 | DRSC10953 | 1.19e5 | 1.49e5 | 1.68e6 | 1.93e6 | inactive |
| Mtr3 | DRSC26956 | 4.23e5 | 2.72e5 | 9.29e5 | 5.08e5 | inactive |
| wmd | DRSC04436 | 7.05e5 | 6.22e5 | 1.23e6 | 1.26e6 | inactive |
| wmd | DRSC29254 | 8.76e5 | 6.81e5 | 1.42e6 | 1.24e6 | inactive |
| Ostgamma | DRSC03074 | 6.90e5 | 8.02e5 | 1.24e6 | 1.13e6 | inactive |
| Nepl20 | DRSC14878 | 2.21e5 | 1.79e5 | 2.91e6 | 2.72e6 | inactive |
| BaraC | DRSC03885 | 1.72e5 | 2.16e5 | 3.45e5 | 3.28e5 | inactive |
| dpr11 | DRSC12561 | 78084 | 1.02e5 | 1.93e6 | 1.94e6 | inactive |
| dpr11 | DRSC12562 | 59473 | 70437 | 1.36e6 | 1.05e6 | inactive |
| dpr11 | DRSC12563 | 62554 | 92854 | 1.39e6 | 1.47e6 | inactive |
| CG33635 | DRSC37906 | 5.50e5 | 7.72e5 | 1.72e6 | 1.82e6 | inactive |
| twit | DRSC03210 | 1.26e6 | 4.26e5 | 3.21e6 | 1.22e6 | inactive |
| twit | DRSC30028 | 4.35e5 | 4.43e5 | 1.01e6 | 1.29e6 | inactive |
| blot | DRSC09485 | 93022 | 67955 | 2.60e5 | 3.36e5 | inactive |
| blot | DRSC11328 | 31364 | 60176 | 3.87e5 | 5.96e5 | inactive |
| blot | DRSC26157 | 2.93e5 | 3.36e5 | 5.67e5 | 6.70e5 | inactive |
| CG16753 | DRSC08489 | 6.13e5 | 9.47e5 | 1.48e6 | 1.72e6 | inactive |
| Saf6 | DRSC00633 | 7.38e5 | 8.97e5 | 2.63e6 | 2.42e6 | inactive |
